# In the supplement of paper PMC7666118:
# The list shows a part of the results.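 How the source made its calls: active = dose-dependent thermal stabilisation significant by F-test of dose-response against flat model at 10% FDR; inactive = not significant.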
# Target: HSP90AA1 (UniProt P07900)
# Assay: dose-dependent thermal stabilisation call (2D-TPP, DLPTP, 10% FDR) (binary (1 = stabilised)); higher = stabilised by the compound
# Conditions: system: Jurkat gel-filtered lysate; concentration range 1-500 µM
# Experimental: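 2D thermal proteome profiling in gel-filtered Jurkat E6.1 lysate (2 mg/ml) treated with NaGTP (0, 1, 10, 100, 500 uM) for 10 min at room temperature, then heated 3 min at one of 12 temperatures (42-63.9 C). Soluble protein was quantified by TMT10 MS. The value is the DLPTP call of the paper: dose-dependent thermal stabilisation over all temperatures at 10% FDR (F-test of a dose-response against a flat model); one experiment, one call per tested protein.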
row,SMILES,dose-dependent thermal stabilisation call
1,Nc1nc2c(ncn2[C@@H]2O[C@H](COP(=O)(O)OP(=O)(O)OP(=O)(O)O)[C@@H](O)[C@H]2O)c(=O)[nH]1,inactive: 0
